Results as given in the supplement of paper PMC9433722.
Where a name gives a salt, the structure may show the parent alone. The list shows a part of the results. Single values are uncertain, as repeats are few or missing.

Tests used:
Saos-2 = test: cell viability (CCK-8) relative to DMSO control (% of control); higher = less cytotoxic; conditions: 10 µM; 48 h
U2OS = test: as above; conditions: 10 µM; 48 h

SMILES	cell viability (Saos-2)	cell viability (U2OS)
C=CC[N+]1([C@H]2C[C@H]3[C@@H]4CC[C@H]5C[C@H](O)[C@@H](N6CCOCC6)C[C@]5(C)[C@H]4CC[C@]3(C)[C@H]2OC(C)=O)CCCC1 [Rocuronium Bromide]	62.5	121
Nc1nc(=O)c2c([nH]1)NCC(CNc1ccc(C(=O)N[C@@H](CCC(=O)O)C(=O)O)cc1)N2C=O (stereo partly specified) [Leucovorin Calcium Pentahydrate]	113	95.2
C[C@@H](CN1CC(=O)NC(=O)C1)N1CC(=O)NC(=O)C1 [Dexrazoxane]	114	109
CN(N=O)C(=O)N[C@@H](C=O)[C@@H](O)[C@H](O)[C@H](O)CO [Streptozocin]	102	96.9
C=CC[C@@H]1/C=C(\C)C[C@H](C)C[C@H](OC)[C@H]2O[C@@](O)(C(=O)C(=O)N3CCCC[C@H]3C(=O)O[C@H](/C(C)=C/[C@@H]3CC[C@@H](O)[C@H](OC)C3)[C@H](C)[C@@H](O)CC1=O)[C@H](C)C[C@@H]2OC [Tacrolimus (Fk506)]	94.4	111
CN(C)[C@@H]1C(O)=C(C(N)=O)C(=O)[C@@]2(O)C(O)=C3C(=O)c4c(O)cccc4[C@@](C)(O)[C@H]3[C@H](O)[C@@H]12 [Oxytetracycline·HCl]	114	103
COc1cc(C(=O)NCc2ccc(OCCN(C)C)cc2)cc(OC)c1OC [Trimethobenzamide·HCl]	77.2	77.3
NS(=O)(=O)c1cc2c(cc1C(F)(F)F)NCNS2(=O)=O [Hydroflumethiazide]	116	89.2
CC(CCc1ccc(O)cc1)NCCc1ccc(O)c(O)c1 (stereo unspecified) [Dobutamine·HCl]	55.8	117
CC(C[N+](C)(C)C)OC(N)=O (stereo unspecified) [Bethanechol Chloride]	121	104
CC1CNc2c(cccc2S(=O)(=O)N[C@@H](CCCNC(=N)N)C(=O)N2CC[C@@H](C)C[C@@H]2C(=O)O)C1 (stereo partly specified) [Argatroban]	71.3	96.7
Nc1nc2c(ncn2COC(CO)CO)c(=O)[nH]1 [Ganciclovir]	67.8	99.6
CCCN(CCC)S(=O)(=O)c1ccc(C(=O)O)cc1 [Probenecid]	102	79.3
Cn1c(=O)c2nc[nH]c2n(C)c1=O [Theophylline]	106	95.8
CCC(=O)OCC(=O)[C@@]1(OC(=O)CC)[C@@H](C)C[C@H]2[C@@H]3CCC4=CC(=O)C=C[C@]4(C)[C@@]3(Cl)[C@@H](O)C[C@@]21C [Beclomethasone Dipropionate]	119	113
CCS(=O)(=O)CCn1c([N+](=O)[O-])cnc1C [Tinidazole]	66.8	108
CCN(CC)CCNC(=O)c1ccc(N)cc1 [Procainamide . hydrochloride]	64.5	108
COc1cccc2c1C(=O)c1c(O)c3c(c(O)c1C2=O)C[C@@](O)(C(=O)CO)C[C@@H]3O[C@H]1C[C@H](N)[C@@H](O)[C@H](C)O1 [Epirubicin·HCl]	29.5	28.6
CCOC(=O)c1ccc(C#Cc2ccc3c(c2)C(C)(C)CCS3)nc1 [Tazarotene]	105	95.2
C[C@@H]1C[C@H]2[C@@H]3CCC4=CC(=O)C=C[C@]4(C)[C@@]3(F)[C@@H](O)C[C@]2(C)[C@@]1(O)C(=O)CO [Dexamethasone]	57.2	103
CC1(C)O[C@@H]2C[C@H]3[C@@H]4CCC5=CC(=O)C=C[C@]5(C)[C@H]4[C@@H](O)C[C@]3(C)[C@]2(C(=O)CO)O1 [Desonide]	114	86.6
CC1(C)S[C@@H]2[C@H](NC(=O)[C@H](N)c3ccc(O)cc3)C(=O)N2[C@H]1C(=O)O [Amoxicillin]	65.5	107
Cc1[nH]c(=O)c(C#N)cc1-c1ccncc1 [Milrinone]	63.7	98.3
Nc1ccc(O)c(C(=O)O)c1 [5-Aminosalicylic acid]	69.2	99
CCCNC(C)C(=O)Nc1c(C)csc1C(=O)OC (stereo unspecified) [Articaine·HCl]	119	103
CN[C@H]1CC[C@@H](c2ccc(Cl)c(Cl)c2)c2ccccc21 [Sertraline·HCl]	42.9	25.3
O=C1CCCC(=O)C1C(=O)c1ccc(C(F)(F)F)cc1[N+](=O)[O-] [Nitisinone]	102	99.6
CC1=Nc2ccc(Cl)cc2S(=O)(=O)N1 [Diazoxide]	65.6	101

Rewritten as comma-separated lines: eight of the compounds above
SMILES,cell viability (Saos-2),cell viability (U2OS)
COc1cc(C(=O)NCc2ccc(OCCN(C)C)cc2)cc(OC)c1OC [Trimethobenzamide·HCl],77.2,77.3
NS(=O)(=O)c1cc2c(cc1C(F)(F)F)NCNS2(=O)=O [Hydroflumethiazide],116,89.2
CC(CCc1ccc(O)cc1)NCCc1ccc(O)c(O)c1 (stereo unspecified) [Dobutamine·HCl],55.8,117
CC(C[N+](C)(C)C)OC(N)=O (stereo unspecified) [Bethanechol Chloride],121,104
CC1CNc2c(cccc2S(=O)(=O)N[C@@H](CCCNC(=N)N)C(=O)N2CC[C@@H](C)C[C@@H]2C(=O)O)C1 (stereo partly specified) [Argatroban],71.3,96.7
Nc1nc2c(ncn2COC(CO)CO)c(=O)[nH]1 [Ganciclovir],67.8,99.6
CCCN(CCC)S(=O)(=O)c1ccc(C(=O)O)cc1 [Probenecid],102,79.3
Cn1c(=O)c2nc[nH]c2n(C)c1=O [Theophylline],106,95.8
